Our source for the binding values is patent US20050063948A1.

Protein sequences, listed by entry. Tags and fused reporters are not part of them. Lines headed by an entry give the natural chain unless they say otherwise; changes in a name come on top.
UniProt P06756: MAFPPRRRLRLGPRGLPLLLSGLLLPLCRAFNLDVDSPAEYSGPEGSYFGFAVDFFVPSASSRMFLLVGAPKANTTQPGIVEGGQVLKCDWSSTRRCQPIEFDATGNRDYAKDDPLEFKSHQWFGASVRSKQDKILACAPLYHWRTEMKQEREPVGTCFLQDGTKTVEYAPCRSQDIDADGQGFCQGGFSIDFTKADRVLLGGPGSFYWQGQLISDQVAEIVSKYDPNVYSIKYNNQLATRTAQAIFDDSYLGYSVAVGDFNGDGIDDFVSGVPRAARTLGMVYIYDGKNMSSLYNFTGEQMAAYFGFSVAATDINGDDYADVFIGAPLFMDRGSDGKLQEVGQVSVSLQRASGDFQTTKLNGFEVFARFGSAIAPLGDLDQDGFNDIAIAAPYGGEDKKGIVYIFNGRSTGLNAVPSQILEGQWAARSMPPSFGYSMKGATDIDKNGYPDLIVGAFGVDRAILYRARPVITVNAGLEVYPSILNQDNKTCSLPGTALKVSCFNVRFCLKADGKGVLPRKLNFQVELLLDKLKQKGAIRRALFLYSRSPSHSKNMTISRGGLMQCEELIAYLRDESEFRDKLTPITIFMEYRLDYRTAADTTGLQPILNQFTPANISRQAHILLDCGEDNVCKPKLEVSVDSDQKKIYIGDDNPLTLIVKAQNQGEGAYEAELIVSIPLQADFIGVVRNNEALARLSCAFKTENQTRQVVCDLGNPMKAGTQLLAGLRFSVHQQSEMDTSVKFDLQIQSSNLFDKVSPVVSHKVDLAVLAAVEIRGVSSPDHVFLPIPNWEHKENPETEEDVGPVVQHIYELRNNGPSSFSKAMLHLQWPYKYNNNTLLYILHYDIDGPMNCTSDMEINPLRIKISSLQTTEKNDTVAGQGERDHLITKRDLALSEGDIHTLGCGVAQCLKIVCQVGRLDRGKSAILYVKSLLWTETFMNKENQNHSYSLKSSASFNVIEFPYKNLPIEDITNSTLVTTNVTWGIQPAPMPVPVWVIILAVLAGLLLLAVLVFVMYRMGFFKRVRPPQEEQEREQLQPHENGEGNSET
UniProt P05106: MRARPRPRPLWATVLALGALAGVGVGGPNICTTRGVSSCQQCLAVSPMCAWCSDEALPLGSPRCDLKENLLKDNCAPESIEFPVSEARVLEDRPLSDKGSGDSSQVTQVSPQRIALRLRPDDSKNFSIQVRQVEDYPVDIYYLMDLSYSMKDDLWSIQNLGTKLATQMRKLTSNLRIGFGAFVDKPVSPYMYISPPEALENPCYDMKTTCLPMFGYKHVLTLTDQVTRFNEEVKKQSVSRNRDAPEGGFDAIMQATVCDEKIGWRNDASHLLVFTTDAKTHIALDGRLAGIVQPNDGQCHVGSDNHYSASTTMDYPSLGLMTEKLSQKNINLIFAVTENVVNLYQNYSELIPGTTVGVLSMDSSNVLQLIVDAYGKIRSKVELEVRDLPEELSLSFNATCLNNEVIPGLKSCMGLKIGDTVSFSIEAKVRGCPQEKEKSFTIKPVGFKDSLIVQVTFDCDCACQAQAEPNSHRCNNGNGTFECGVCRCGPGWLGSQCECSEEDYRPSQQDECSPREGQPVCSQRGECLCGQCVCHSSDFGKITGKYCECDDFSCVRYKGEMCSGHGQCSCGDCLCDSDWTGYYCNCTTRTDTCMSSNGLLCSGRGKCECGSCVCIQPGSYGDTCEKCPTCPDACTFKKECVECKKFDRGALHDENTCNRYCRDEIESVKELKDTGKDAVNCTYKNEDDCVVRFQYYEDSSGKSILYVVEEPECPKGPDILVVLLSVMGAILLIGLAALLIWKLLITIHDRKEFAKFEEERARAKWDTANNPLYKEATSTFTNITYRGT

No constants are given. Whether binding was seen depends on the method and setting. Some binding calls cover weakened binding; strength is not graded here. Sequences can lack the tags named with a protein.

In the assay the target is αvβ3 integrin on the surface of M21 human melanoma cells (human) (UniProt P06756+P05106). Nature of the assay: immunofluorescence on αvβ3-positive M21 cells, detected with anti-mouse IL-12 p40 antibody and FITC secondary.

B1: mrIL-12vp (murine recombinant IL-12 with the RGD-4C vascular homing peptide fused to the C-terminus of the p35 subunit, co-expressed with p40) (protein, mouse)
chain 1: RVIPVSGPARCLSQSRNLLKTTDDMVKTAREKLKHYSCTAEDIDHEDITRDQTSTLKTCLPLELHKNESCLATRETSSTTRGSCLPPQKTSLMMTLCLGSIYEDLKMYQTEFQAINAALQNHNHQQIILDKGMLVAIDELMQSLNHNGETLRQKPPVGEADPYRVKMKLCILLHAFSTRVVTINRVMGYLSSACDCRGDCFC
chain 2: MWELEKDVYVVEVDWTPDAPGETVNLTCDTPEEDDITWTSDQRHGVIGSGKTLTITVKEFLDAGQYTCHKGGETLSHSHLLLHKKENGIWSTEILKNFKNKTFLKCEAPNYSGRFTCSWLVQRNMDLKFNIKSSSSSPDSRAVTCGMASLSAEKVTLDQRDYEKYSVSCQEDVTCPTAEETLPIELALEARQQNKYENYSTSFFIRDIIKPDPPKNLQMKPLKNSQVEVSWEYPDSWSTPHSYFSLKFFVRIQRKKEKMKETEEGCNQKGAFLVEKTSTEVQCKGGNVCVQAQDRYYNSSCSKWACVPCRVRS
Consider B1, for which the binding entry is on record as “binds”.
